The assay concerns the target T1, Snapin c-myc-tagged (UniProt O95295).
T1 sequence: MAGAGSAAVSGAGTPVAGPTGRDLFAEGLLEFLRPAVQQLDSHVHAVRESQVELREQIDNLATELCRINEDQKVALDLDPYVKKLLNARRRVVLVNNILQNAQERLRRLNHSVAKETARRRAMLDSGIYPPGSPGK
Nature of the assay: co-IP; HEK293 cells transfected with ΔARD-TRPV2-GFP and c-myc-tagged Snapin or Synaptotagmin-IX; lysate (50 mM Tris-HCl pH 7.4, 150 mM NaCl, 2 mM EDTA, 1% Triton, 5% glycerol) incubated overnight at 4 °C with anti-MYC antibody, then sepharose beads; control without antibody; immunoblot. For orientation: In western blotting, separated proteins are transferred to a membrane and probed.

By UniProt entry, the sequences of proteins in these tests, tags left out. Where a name states a change or a piece, a line headed by the entry shows the natural chain unless it says otherwise. Residues count along the entry.
UniProt Q9WUD2, residues 337-761: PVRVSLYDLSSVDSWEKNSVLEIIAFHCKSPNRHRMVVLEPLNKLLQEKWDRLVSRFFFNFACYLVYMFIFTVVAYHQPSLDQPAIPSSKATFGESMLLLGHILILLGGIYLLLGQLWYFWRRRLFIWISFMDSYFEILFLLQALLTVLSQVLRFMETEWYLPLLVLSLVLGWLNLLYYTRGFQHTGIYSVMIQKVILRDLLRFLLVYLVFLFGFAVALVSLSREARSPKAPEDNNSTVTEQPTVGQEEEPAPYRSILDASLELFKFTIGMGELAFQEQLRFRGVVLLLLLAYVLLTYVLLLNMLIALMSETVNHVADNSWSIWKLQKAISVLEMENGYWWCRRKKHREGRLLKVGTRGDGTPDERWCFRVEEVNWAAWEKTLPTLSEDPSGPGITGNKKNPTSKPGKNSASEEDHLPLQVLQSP

Results are given in words; binding and its absence hold for the method and conditions named. In cells and extracts the contact can be indirect. Some binding calls cover weakened binding; strength is not graded here. Tags and fused reporters may be left off the sequences shown.

Consider “ΔARD-TRPV2-GFP (Δ1-336 rat TRPV2) (from UniProt Q9WUD2 337-761) (domain or fragment)”, for which the binding entry is reported as “binds”.
